# According to the supplement of paper PMC4604168 (melanoma cell lines):
# This is one part of the list. Many values rest on one well or one pass, so single values are uncertain.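 Cells were imaged in 1,536-well plates, and nuclei stained with an antibody against cleaved PARP were counted against all DNA-stained nuclei to give the apoptosis fraction. Screening doses were chosen to leave most cells alive, and resting and induced cleaved-PARP levels differ strongly between cell lines.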
# System: A375
# Assay: cleaved PARP positive nuclei fraction relative to DMSO control; melanoma cells; higher = more apoptosis
# Conditions: library dose: low library concentration; 72 h
row,SMILES,cleaved PARP positive nuclei fraction
1,"OCc1c[nH]c2ccccc12 [Indole-3-carbinol] + C[As](C)SC[C@H](NC(=O)CC[C@H](N)C(=O)O)C(=O)NCC(=O)O [Darinaparsin] (first compound 0.8 µM, partner dose 0.4 µM)",92.4%
2,"Nc1ccn([C@@H]2O[C@H](CO)[C@@H](O)C2(F)F)c(=O)n1 [gemcitabine] + C[As](C)SC[C@H](NC(=O)CC[C@H](N)C(=O)O)C(=O)NCC(=O)O [Darinaparsin] (first compound 0.0004 µM, partner dose 0.4 µM)",84%
3,"Cn1c(=O)n(-c2ccc(C(C)(C)C#N)cc2)c2c3cc(-c4cnc5ccccc5c4)ccc3ncc21 + C[As](C)SC[C@H](NC(=O)CC[C@H](N)C(=O)O)C(=O)NCC(=O)O [Darinaparsin] (first compound 0.004 µM, partner dose 0.4 µM)",103%
4,"N.N.[Cl][Pt][Cl] [cisplatin] + Cc1nc(Nc2ncc(C(=O)Nc3c(C)cccc3Cl)s2)cc(N2CCN(CCO)CC2)n1 [dasatanib] (first compound 1.6 µM, partner dose 0.004 µM)",168%
5,"N.N.[Cl][Pt][Cl] [cisplatin] + C[C@@H](Oc1cc(-c2cnn(C3CCNCC3)c2)cnc1N)c1c(Cl)ccc(F)c1Cl [Crizotinib] (first compound 1.6 µM, partner dose 0.2 µM)",152%
6,"Cn1cc(C2=C(c3cn(C4CCN(Cc5ccccn5)CC4)c4ccccc34)C(=O)NC2=O)c2ccccc21 [Enzastaurin] + O=C(O)[C@@H]1[O][Sb](=[O])([O][Sb]2(=[O])[O][C@H]([C@H](O)CO)[C@H](O)[C@H](C(=O)O)[O]2)[O][C@H]([C@H](O)CO)[C@@H]1O [stibogluconate] (first compound 0.8 µM, partner dose 2 µM)",90.4%
7,"C[C@]12O[C@H](C[C@]1(O)CO)n1c3ccccc3c3c4c(c5c6ccccc6n2c5c31)CNC4=O [Lestaurtinib] + Nc1ccn([C@@H]2O[C@H](CO)[C@@H](O)C2(F)F)c(=O)n1 [gemcitabine] (first compound 0.004 µM, partner dose 0.0004 µM)",130%
8,"N.N.[Cl][Pt][Cl] [cisplatin] + CN1CCN(c2ccc3nc(-c4c(N)c5c(F)cccc5[nH]c4=O)[nH]c3c2)CC1 [Dovitinib] (first compound 1.6 µM, partner dose 0.1 µM)",181%
9,"NC1(c2ccc(-c3nc4ccn5c(=O)[nH]nc5c4cc3-c3ccccc3)cc2)CCC1 + C[As](C)SC[C@H](NC(=O)CC[C@H](N)C(=O)O)C(=O)NCC(=O)O [Darinaparsin] (first compound 0.4 µM, partner dose 0.4 µM)",181%

# System: C32
# Assay: as above
# Conditions: library dose: low library concentration; 72 h
row,SMILES,cleaved PARP positive nuclei fraction
1,"O=c1[nH]nc(Sc2ncc([N+](=O)[O-])s2)n1-c1ccc2c(c1)OCCO2 + N.N.[Cl][Pt][Cl] [cisplatin] (first compound 0.2 µM, partner dose 1.6 µM)",68.9%
2,"N.N.[Cl][Pt][Cl] [cisplatin] + C=C(c1ccc(C(=O)O)cc1)c1cc2c(cc1C)C(C)(C)CCC2(C)C [Bexarotene] (first compound 1.6 µM, partner dose 2 µM)",76.6%
3,"C=C(c1ccc(C(=O)O)cc1)c1cc2c(cc1C)C(C)(C)CCC2(C)C [Bexarotene] + C[As](C)SC[C@H](NC(=O)CC[C@H](N)C(=O)O)C(=O)NCC(=O)O [Darinaparsin] (first compound 2 µM, partner dose 0.4 µM)",41%
4,"Cc1cc(Nc2cc(N3CCN(C)CC3)nc(Sc3ccc(NC(=O)C4CC4)cc3)n2)n[nH]1 [Tozasertib] + Cn1cc(C2=C(c3cn(C4CCN(Cc5ccccn5)CC4)c4ccccc34)C(=O)NC2=O)c2ccccc21 [Enzastaurin] (first compound 0.006 µM, partner dose 0.8 µM)",62.4%
5,"CCN(CC)CCNC(=O)c1c(C)[nH]c(/C=C2\C(=O)Nc3ccc(F)cc32)c1C [sunitinib] + N.N.[Cl][Pt][Cl] [cisplatin] (first compound 0.4 µM, partner dose 1.6 µM)",77.6%
6,"Cn1cc(C2=C(c3cn(C4CCN(Cc5ccccn5)CC4)c4ccccc34)C(=O)NC2=O)c2ccccc21 [Enzastaurin] + OCc1c[nH]c2ccccc12 [Indole-3-carbinol] (first compound 0.8 µM, partner dose 0.8 µM)",404%
7,"C[As](C)SC[C@H](NC(=O)CC[C@H](N)C(=O)O)C(=O)NCC(=O)O [Darinaparsin] + Nc1cccc2c1CN(C1CCC(=O)NC1=O)C2=O [lenalidomide] (first compound 0.4 µM, partner dose 1 µM)",73.9%
8,"C[C@]12O[C@H](C[C@]1(O)CO)n1c3ccccc3c3c4c(c5c6ccccc6n2c5c31)CNC4=O [Lestaurtinib] + Clc1ccc(Nc2nnc(Cc3ccncc3)c3ccccc23)cc1 [vatalanib] (first compound 0.004 µM, partner dose 2 µM)",69.6%
9,"Cn1cc(C2=C(c3cn(C4CCN(Cc5ccccn5)CC4)c4ccccc34)C(=O)NC2=O)c2ccccc21 [Enzastaurin] + O=C(O)c1ccc2c(c1)nc(Nc1cccc(Cl)c1)c1ccncc12 [CX4945] (first compound 0.8 µM, partner dose 0.4 µM)",85.1%
10,"C[C@]12O[C@H](C[C@]1(O)CO)n1c3ccccc3c3c4c(c5c6ccccc6n2c5c31)CNC4=O [Lestaurtinib] + Nc1ncn([C@H]2C[C@H](O)[C@@H](CO)O2)c(=O)n1 [decitabine] (first compound 0.004 µM, partner dose 0.1 µM)",82.3%
11,"Cn1cc(C2=C(c3cn(C4CCN(Cc5ccccn5)CC4)c4ccccc34)C(=O)NC2=O)c2ccccc21 [Enzastaurin] + C[C@]1(c2nc3c(C(N)=O)cccc3[nH]2)CCCN1 [Veliparib] (first compound 0.8 µM, partner dose 1.4 µM)",87.4%
12,"Cc1ccc(Nc2nccc(N(C)c3ccc4c(C)n(C)nc4c3)n2)cc1S(N)(=O)=O [Pazopanib] + N.N.[Cl][Pt][Cl] [cisplatin] (first compound 0.4 µM, partner dose 1.6 µM)",71.1%
13,"C[As](C)SC[C@H](NC(=O)CC[C@H](N)C(=O)O)C(=O)NCC(=O)O [Darinaparsin] + Cn1c(Nc2ccc(C(F)(F)F)cc2)nc2cc(Oc3ccnc(-c4ncc(C(F)(F)F)[nH]4)c3)ccc21 [CHIR265] (first compound 0.4 µM, partner dose 0.08 µM)",170%
14,"CC[C@]1(O)C[C@H]2CN(CCc3c([nH]c4ccccc34)[C@@](C(=O)OC)(c3cc4c(cc3OC)N(C=O)[C@H]3[C@@](O)(C(=O)OC)[C@H](OC(C)=O)[C@]5(CC)C=CCN6CC[C@]43[C@@H]65)C2)C1 [vincristine] + N.N.[Cl][Pt][Cl] [cisplatin] (first compound 0.0001 µM, partner dose 1.6 µM)",75.1%
15,"O=C(/C=C/c1cccnc1)NCCCCC1CCN(C(=O)c2ccccc2)CC1 + N.N.[Cl][Pt][Cl] [cisplatin] (first compound 0.01 µM, partner dose 1.6 µM)",67.7%
16,"Nc1ncn([C@H]2C[C@H](O)[C@@H](CO)O2)c(=O)n1 [decitabine] + C[As](C)SC[C@H](NC(=O)CC[C@H](N)C(=O)O)C(=O)NCC(=O)O [Darinaparsin] (first compound 0.1 µM, partner dose 0.4 µM)",72.6%
17,"C#Cc1cccc(Nc2ncnc3cc(OCCOC)c(OCCOC)cc23)c1 [erlotinib] + C[As](C)SC[C@H](NC(=O)CC[C@H](N)C(=O)O)C(=O)NCC(=O)O [Darinaparsin] (first compound 0.8 µM, partner dose 0.4 µM)",79.7%
18,"Cn1cc(C2=C(c3cn(C4CCN(Cc5ccccn5)CC4)c4ccccc34)C(=O)NC2=O)c2ccccc21 [Enzastaurin] + CC(=O)c1c(C)c2cnc(Nc3ccc(N4CCNCC4)cn3)nc2n(C2CCCC2)c1=O [palbociclib] (first compound 0.8 µM, partner dose 0.04 µM)",84%
19,"N.N.[Cl][Pt][Cl] [cisplatin] + O=C(O)[C@@H]1[O][Sb](=[O])([O][Sb]2(=[O])[O][C@H]([C@H](O)CO)[C@H](O)[C@H](C(=O)O)[O]2)[O][C@H]([C@H](O)CO)[C@@H]1O [stibogluconate] (first compound 1.6 µM, partner dose 2 µM)",40.5%
20,"Cc1cn(-c2cc(NC(=O)c3ccc(C)c(Nc4nccc(-c5cccnc5)n4)c3)cc(C(F)(F)F)c2)cn1 [nilotinib] + C[C@]12O[C@H](C[C@]1(O)CO)n1c3ccccc3c3c4c(c5c6ccccc6n2c5c31)CNC4=O [Lestaurtinib] (first compound 0.2 µM, partner dose 0.004 µM)",73.3%
21,"CO[C@H]1C[C@@H]2CC[C@@H](C)[C@@](O)(O2)C(=O)C(=O)N2CCCC[C@H]2C(=O)O[C@H]([C@H](C)C[C@@H]2CC[C@@H](OCCO)[C@H](OC)C2)CC(=O)[C@H](C)/C=C(\C)[C@@H](O)[C@@H](OC)C(=O)[C@H](C)C[C@H](C)/C=C/C=C/C=C/1C [everolimus] + C[As](C)SC[C@H](NC(=O)CC[C@H](N)C(=O)O)C(=O)NCC(=O)O [Darinaparsin] (first compound 0.02 µM, partner dose 0.4 µM)",99.4%

# Single entries from the entries so far.
# cleaved PARP positive nuclei fraction, C[As](C)SC[C@H](NC(=O)CC[C@H](N)C(=O)O)C(=O)NCC(=O)O [Darinaparsin] + Cn1c(Nc2ccc(C(F)(F)F)cc2)nc2cc(Oc3ccnc(-c4ncc(C(F)(F)F)[nH]4)c3)ccc21 [CHIR265] (first compound 0.4 µM, partner dose 0.08 µM) is entered as 170%
# cleaved PARP positive nuclei fraction, N.N.[Cl][Pt][Cl] [cisplatin] + C=C(c1ccc(C(=O)O)cc1)c1cc2c(cc1C)C(C)(C)CCC2(C)C [Bexarotene] (first compound 1.6 µM, partner dose 2 µM) is entered as 76.6%
